Results as given in patent US20190120846A1.
These are yes or no findings as the source states them, for the method shown. Some results given as binding are weak or reduced against the parent protein; the word gives no strength.

What was measured:
[1] = target: T1, recombinant human glypican-1 produced in murine NS0 cells (human) (UniProt P35052); assay: sandwich ELISA, AM4 as capture, biotinylated AM4 as detection
T1 sequence (looked up): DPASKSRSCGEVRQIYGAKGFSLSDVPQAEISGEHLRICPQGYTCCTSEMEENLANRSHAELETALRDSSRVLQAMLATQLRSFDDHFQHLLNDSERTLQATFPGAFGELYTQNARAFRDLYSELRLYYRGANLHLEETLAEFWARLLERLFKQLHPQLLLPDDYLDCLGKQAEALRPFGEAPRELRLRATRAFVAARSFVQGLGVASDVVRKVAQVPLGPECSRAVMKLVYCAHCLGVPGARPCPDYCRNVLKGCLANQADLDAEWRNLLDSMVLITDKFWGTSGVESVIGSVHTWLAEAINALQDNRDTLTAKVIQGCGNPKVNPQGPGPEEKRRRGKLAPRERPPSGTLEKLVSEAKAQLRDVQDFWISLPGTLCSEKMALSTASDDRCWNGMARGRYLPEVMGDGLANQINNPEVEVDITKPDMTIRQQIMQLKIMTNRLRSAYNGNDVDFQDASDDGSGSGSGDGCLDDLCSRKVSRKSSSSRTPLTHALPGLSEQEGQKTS

[2] = target: T2, human glypican-1 (GPC-1) sequence used for epitope mapping (human) (UniProt P35052); assay: PEPSCAN ELISA on CLIPS peptide arrays, 10 µg/ml antibody
T2 sequence: T1 sequence (looked up)

[3] = target: T2, human glypican-1 (GPC-1) sequence used for epitope mapping (human); assay: earlier peptide analyses by the inventors
[4] = target: T1, recombinant human glypican-1 produced in murine NS0 cells (human); assay: sandwich ELISA, capture 2.5 µg/well, biotinylated AM4 clone 1F5 as detection
[5] = target: T1, recombinant human glypican-1 produced in murine NS0 cells (human); assay: sandwich ELISA

Measured: binding

B1: AM4 MIL-38 antibody (monoclonal, hybridoma CBA20140026) (antibody, mouse IgG1, kappa, V domains shown)
VH: QIQLVQSGPELKKPGETVKISCKASGYAFTDYSMNWVKQAPGKGLRWMGWINTETGEPTYTDDFKGRFAFSLETSASTAFLQINNLRNEDTATYFCARHYDYGGFPYWGQGTLVTVSA
VL: DIQMTQSPASLSASVGETVTITCRASGNVHNYLAWYQQKQGKSPQLLVYTAKTLADGVPSRFSGSGSGTQYSLKINSLQPEDFGTYYCQHFWSNPWTFGGGTKLEIKR
binds: all assays above
